Experimental data taken from publication PMC3743049.
These are yes or no findings as the source states them, for the method shown. Binding seen in cells or lysates may run through a third protein. Some entries that bind do so weakly or less than the wild type.

Chains of the proteins cited; added tags and fusions are not shown.
UniProt P42227: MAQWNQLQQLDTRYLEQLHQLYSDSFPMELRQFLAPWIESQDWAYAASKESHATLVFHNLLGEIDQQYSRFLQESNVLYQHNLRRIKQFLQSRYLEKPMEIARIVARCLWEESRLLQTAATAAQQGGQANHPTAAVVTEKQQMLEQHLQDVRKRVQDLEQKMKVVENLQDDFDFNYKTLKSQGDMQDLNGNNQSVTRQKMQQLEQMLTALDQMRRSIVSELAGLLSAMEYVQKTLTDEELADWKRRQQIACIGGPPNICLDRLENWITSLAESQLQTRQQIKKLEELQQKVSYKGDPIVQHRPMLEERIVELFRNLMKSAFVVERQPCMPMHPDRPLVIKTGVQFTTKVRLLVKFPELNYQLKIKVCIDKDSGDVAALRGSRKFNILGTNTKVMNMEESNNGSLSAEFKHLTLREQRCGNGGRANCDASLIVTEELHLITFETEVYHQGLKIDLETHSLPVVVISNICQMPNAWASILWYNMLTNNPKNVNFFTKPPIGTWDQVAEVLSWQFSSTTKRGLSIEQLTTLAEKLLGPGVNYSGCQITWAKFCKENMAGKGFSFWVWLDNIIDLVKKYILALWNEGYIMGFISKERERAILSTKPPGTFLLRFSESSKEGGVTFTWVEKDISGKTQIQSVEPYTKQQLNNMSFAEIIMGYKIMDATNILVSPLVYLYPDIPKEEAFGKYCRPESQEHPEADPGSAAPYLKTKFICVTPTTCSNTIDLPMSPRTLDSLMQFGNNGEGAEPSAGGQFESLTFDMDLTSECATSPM
UniProt P05627: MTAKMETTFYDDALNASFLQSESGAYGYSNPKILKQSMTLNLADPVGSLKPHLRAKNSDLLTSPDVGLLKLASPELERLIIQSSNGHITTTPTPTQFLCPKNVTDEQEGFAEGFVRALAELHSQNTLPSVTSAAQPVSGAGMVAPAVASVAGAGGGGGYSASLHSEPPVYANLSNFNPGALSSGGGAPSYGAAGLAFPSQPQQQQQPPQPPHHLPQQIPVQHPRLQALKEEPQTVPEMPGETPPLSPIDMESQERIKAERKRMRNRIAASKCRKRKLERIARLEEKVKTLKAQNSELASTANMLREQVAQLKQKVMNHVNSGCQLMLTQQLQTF
UniProt Q64261: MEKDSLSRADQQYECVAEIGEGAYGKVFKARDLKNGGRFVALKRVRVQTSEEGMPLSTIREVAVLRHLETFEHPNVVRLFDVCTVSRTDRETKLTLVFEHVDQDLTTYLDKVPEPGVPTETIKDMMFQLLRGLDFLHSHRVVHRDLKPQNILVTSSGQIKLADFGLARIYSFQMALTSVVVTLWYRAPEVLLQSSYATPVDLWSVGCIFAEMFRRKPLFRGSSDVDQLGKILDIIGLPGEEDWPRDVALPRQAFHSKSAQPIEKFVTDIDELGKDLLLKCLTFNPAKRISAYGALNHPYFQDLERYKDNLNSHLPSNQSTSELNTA

How the values were obtained:
[1] = molecular target: STAT3 (mouse (endogenous in p185BCR-ABL-transformed murine cells)) (UniProt P42227); experiment: co-IP; anti-STAT3 or anti-c-JUN immunoprecipitation from cell extracts of p185BCR-ABL-transformed cells (Stat3Δ/Δ or c-JunΔ/Δ, Cdk6-/-, Cdk6+/+, Cdk6+/++Cdk6), immunoblotted for the bait and CDK6; CDK4 in Figure S7A
[2] = molecular target: c-JUN (mouse (endogenous in p185BCR-ABL-transformed murine cells)) (UniProt P05627); experiment: as above

Row | Molecule | binding [1] | binding [2]
1 | CDK6 (from UniProt Q64261 1-326) | binds | binds
2 | CDK4 (protein, UniProt P30285 1-303) MAATRYEPVAEIGVGAYGTVYKARDPHSGHFVALKSVRVPNGGAAGGGLPVSTVREVALLRRLEAFEHPNVVRLMDVCATSRTDRDIKVTLVFEHIDQDLRTYLDKAPPPGLPVETIKDLMRQFLSGLDFLHANCIVHRDLKPENILVTSNGTVKLADFGLARIYSYQMALTPVVVTLWYRAPEVLLQSTYATPVDMWSVGCIFAEMFRRKPLFCGNSEADQLGKIFDLIGLPPEDDWPREVSLPRGAFAPRGPRPVQSVVPEMEESGAQLLLEMLTFNPHKRISAFRALQHSYLHKEESDAE | no binding | no binding
